Reference: US7053178B2, “Synthetic peptides and kits for diagnosis of anti-phospholipid syndrome” (Yeda Research Development Co., LTD, priority 1998, dated 2006)
Some entries share one result that the patent states for a list of compounds. Where no end group is shown, it is not given here.

Legend:
[1] = test system: enriched B cell population from an APS patient, specific to β2GPI; experiment: Spot ELISA of anti-β2GPI antibody-forming cell (AFC) activity; format: cell-based, human; details: APS patient S B cells, peptides 10 μM, isotype not specified
[2] = test system: anti-β2GPI ILA-1 mAb; experiment: U937 monocyte adhesion to HUVEC exposed to ILA-1 mAb; format: cell-based, human; details: ILA-1 mAb preincubated with peptide, 10 μM peptide
Description: FIGS. 3A–3C are graphs showing inhibition of U937 monocyte cell adhesion to HUVEC upon exposure to anti-β2GPI ILA-1, ILA-3 and G-3 mAbs and increasing concentrations of the inhibitory monomer peptides A, B and C, respectively, and of unrelated peptide D as control. The percentage of inhibition of adhesion was calculated as follows: % inhibition of adhesion=CPM in the presence of anti-β2GPI mAb−CPM in the presence of anti-β2GPI mAb and the tested peptide/CPM in the presence of anti-β2GPI mAb×100 (CPM=counts/min). Each point represents mean±SD of three different experiments.
(g) Adherence of U937 monocyte cells to endothelial cells in the presence of anti-β2GPI mAbs and the inhibitory peptides. This assay was performed as previously described (Carvalho et al., 1996). Briefly, U937 cells (a monocyte/macrophage-like cell line) were pretreated with heat-aggregated gamma-globulin for 30 min at 37° C. […] Radioactivity associated with adherence was quantified by beta-scintillation spectroscopy. The results were expressed as percent of added U937 cells that adhered and are presented as the mean±SD from 3–5 replicate wells.
The adhesion of monocytes to endothelial cells (EC) is considered a marker of EC activation. The percentage of adhesion is expressed as the portion of added U937 monocyte cells adhering to the HUVEC (thus reflecting the percentage of HUVEC coverage by the monocytes). […]

| Substance | effect on anti-β2GPI AFC activity [1] | inhibition of adhesion of U937 to HUVEC [2] |
| --- | --- | --- |
| (di-α,ε-Lys)2Lys(tetraC) [tetravalent peptide C] | 2–10% | – |
| KDKATFGTHDG [Peptide B] | – | 6–17% |
| CATLRVYKGG [Peptide C] | – | 6–17% |
